Laboratory results from patent publication US20240398853A1, “MULTIVALENT POLYCATION INHIBITION OF POLYANIONS IN BLOOD” (The Regents of the University of Michigan, priority 2021, published 2024).

Test: Isothermal titration calorimetry, binding to polyP
Conditions: P700; HEPES buffer, pH 7.4, 25° C.
Protocol: The interaction of MPI and polyP was carried out at 25° C. using a MicroCal iTC200 calorimeter (MicroCal, Northampton, USA). Samples were prepared by making stock solutions of at least 100× the desired concentration at high volume and filtered using 0.2 µm filters (Millex, Merck Millipore Ltd). The pH of each solution was then measured to ensure that they were between 7.35 and 7.40. Prior to titration, stock solutions were diluted with the same filtered buffer and degassed. Titrations consisted of 25 consecutive injections of 1.5 μL volume and 5 sec duration each, with a 3 min interval between injections with only the first injection between 0.2 μL volume, not used as part of the fit. Heat of dilution was measured by injecting MPI solution into buffer alone and was subtracted from the experimental curves prior to data analysis. The resulting data were fit into a single set of identical sites model using the MicroCal ORIGIN software supplied with the instrument.

SMILES: CN(C)CCN(C)CCN(C)C [CBG I, N,NN′,N″,N″-pentamethyldiethylenetriamine]
- N (ratio of MPI to polyP): 0.004
